Tests used:
[1] = Line edge evaluated at 50x magnification; set-up: key: 1: acceptable for use; ratings of "2" to "4" indicate fuzzier line edges; 3: ratings of "2" to "4" indicate fuzzier line edges; ratings of "2" to "4" indicate fuzzier line edges; conditions: rating at 50x magnification
Source text: (§1) The emulsion used is a monodispersed cubic AgClBr (70 mole % chloride) type with an area equivalent diameter of 0.2 μm. It is internally rhodium doped with sodium hexachlororhodate at 0.109 ppm rhodium based on silver. The emulsion is coated at 3.6 g Ag/M^2 on a polyester base. Gelatin content is 2.85 g/m^2 with 0.61 g/m^2 latex (a polyacrylate with sulfate, hydroxyl and carboxyl groups). The emulsion is sulfur and gold ripened and sensitized with 3-ethyl-2[3-(3'-ethyl-2-(4,5-disubstituted benzothiazolinylidene)-1-propenyl]-4,5-disubstituted benzothiazolium iodide (44.29 mg/mole Ag) and 2-([5,5-dimethyl-3-((5-(3-substituted-thioxo-4-thiazolidinonyl))ethylidenyi)-2-cyclohexen-1-ylidene]methyl)-3-substituted benzothiazolium salt (17.59 mg/mole Ag). The pAg is adjusted with NaCl and the emulsion is stabilized with triazaindolizine and phenylmercaptoterazole. The emulsion layer is overcoated with a gelatin layer containing a silica matting agent, hydroquinone, Dimezon S, sodium metabisulfate, a slippage agent and coating aid. The hydrazide is added to the emulsion (or adjacent layer) as a DMF/water solution at a level of 3 mmol/mole of silver.
(§2) The coated film samples were exposed on an Aerodyne Microsecond Laser Sensitometer, with a laser wavelength of 633 nanometers and having a beamwidth of 50 microns. The exposure was a series of adjacent parallel lines with a center-to center stepover spacing of 62 microns. The laser light was modulated by a step wedge of 21 steps each of 0.075 density units increments.
(§3) The exposed film was processed in a Polychrome processor at 35° C. for 35 seconds in a developer of the following composition:
(§4) The above concentrate is diluted with two equal parts of water to obtain a working developer solution with a working pH of 10.4. After fixing, washing and drying the strips were read on a Macbeth TR927 densitometer through a 3 mm aperture with light filtered to visual.
(§5) In the examples that follow, a comparison is made between the preferred hydrazide of the present invention and structurally related hydrazides. An emulsion is prepared using the procedure described above with an emulsion using hydrazides having Formula 3, described in Table 1. The film is exposed and developed as described in Example 2. The films are evaluated for speed, screen range, line edge, and pepper.
4.) Line edge is evaluated at 50x magnification. A rating of "1" is
acceptable for use while ratings of "2" to "4" indicate fuzzier line
(§6) The speed reported is relative, based on the speed (100) of Compound 4 at a hydrazide level of 0.23 mmol/mol Ag. The line edge is evaluated at 50× magnification. A rating of "1" is acceptable for use while ratings of "2" to "4" indicate fuzzier line edges. Pepper is evaluated at 50× magnification. Strips were clear processed for 35 sec at 95° F. The average count in 5 fields is given. The field size is 2.5 mm. An average count of greater than 6 is rejectable.

[2] = Pepper evaluated at 50x magnification; conditions: average count in 5 fields, field size 2.5 mm^2, >6 rejectable
Source text: as §1, §2, §3, §4, §5
5.) Pepper is evaluated at 50x magnification. The average count in 5
fields is given. The field size is 2.5 mm^2. An average count of
greater than 6 is rejectable.
as §6

CCCCC(CCCC)c1cc[n+](CC(=O)Nc2ccc(S(=O)(=O)Nc3ccc(NNC(=O)C(=O)NCC)c(C)c3)cc2)cc1 [Compound 3]
LINE EDGE ([1]; 0.16 mmol/mol Ag): 4 | LINE EDGE ([1]; 0.20 mmol/mol Ag): 3 | LINE EDGE ([1]; 0.23 mmol/mol Ag): 3 | LINE EDGE ([1]; 0.29 mmol/mol Ag): 3 | LINE EDGE ([1]; 0.51 mmol/mol Ag): 1 | PEPPER ([2]; 0.16 mmol/mol Ag): 0 | PEPPER ([2]; 0.20 mmol/mol Ag): 0 | PEPPER ([2]; 0.23 mmol/mol Ag): 0 | PEPPER ([2]; 0.29 mmol/mol Ag): 3 | PEPPER ([2]; 0.51 mmol/mol Ag): 3

CCCCC(CCCC)c1cc[n+](CC(=O)Nc2ccc(S(=O)(=O)Nc3ccc(NNC(=O)C(=O)NCC)cc3)cc2)cc1 [Compound 4]
LINE EDGE ([1]; 0.16 mmol/mol Ag): 4 | LINE EDGE ([1]; 0.20 mmol/mol Ag): 4 | LINE EDGE ([1]; 0.23 mmol/mol Ag): 2 | LINE EDGE ([1]; 0.29 mmol/mol Ag): 1 | LINE EDGE ([1]; 0.51 mmol/mol Ag): 1 | PEPPER ([2]; 0.16 mmol/mol Ag): 0 | PEPPER ([2]; 0.20 mmol/mol Ag): 0 | PEPPER ([2]; 0.23 mmol/mol Ag): 0 | PEPPER ([2]; 0.29 mmol/mol Ag): 0 | PEPPER ([2]; 0.51 mmol/mol Ag): 2

CCCCC(CCCC)c1cc[n+](CC(=O)Nc2ccc(S(=O)(=O)Nc3ccc(NNC(=O)C(=O)NCCO)c(C)c3)cc2)cc1 [IV]
LINE EDGE ([1]; 0.16 mmol/mol Ag): 2 | LINE EDGE ([1]; 0.20 mmol/mol Ag): 1 | LINE EDGE ([1]; 0.23 mmol/mol Ag): 1 | LINE EDGE ([1]; 0.29 mmol/mol Ag): 1 | LINE EDGE ([1]; 0.51 mmol/mol Ag): 1 | PEPPER ([2]; 0.16 mmol/mol Ag): 1 | PEPPER ([2]; 0.20 mmol/mol Ag): 2 | PEPPER ([2]; 0.23 mmol/mol Ag): 1 | PEPPER ([2]; 0.29 mmol/mol Ag): 2 | PEPPER ([2]; 0.51 mmol/mol Ag): 30

CCCCC(CCCC)c1cc[n+](CC(=O)Nc2ccc(S(=O)(=O)Nc3ccc(NNC(=O)C(=O)NCCO)cc3)cc2)cc1 [XI]
LINE EDGE ([1]; 0.16 mmol/mol Ag): 1 | LINE EDGE ([1]; 0.20 mmol/mol Ag): 1 | LINE EDGE ([1]; 0.23 mmol/mol Ag): 1 | LINE EDGE ([1]; 0.29 mmol/mol Ag): 1 | LINE EDGE ([1]; 0.51 mmol/mol Ag): 1 | PEPPER ([2]; 0.16 mmol/mol Ag): 3 | PEPPER ([2]; 0.20 mmol/mol Ag): 0 | PEPPER ([2]; 0.23 mmol/mol Ag): 1 | PEPPER ([2]; 0.29 mmol/mol Ag): 1 | PEPPER ([2]; 0.51 mmol/mol Ag): 80

From patent US6063541A, “Hydrazides” (Kodak Polychrome Graphics LLC, priority 1997, dated 2000)
